Where a name gives a salt, the structure may show the parent alone. Several reference drugs read as weak here; read low effects with care.
Test system: MCF7
Test: cell viability relative to DMSO control (raw), single agent; higher = more viable cells
Conditions: exposure time 72 h
Procedure: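 MCF7 cells, 1000 cells/well in 384-well plates, single-agent wells of drug 2 (drug 1 at 0 µM) within 6x6 combination matrices (1:3 serial dilutions), 72 h at 37 °C. Viability read by CellTiter-Glo luminescence, 3 biological replicates. Normalised viability sets 0% at the highest doxorubicin dose and 100% at the 0,0 µM control per combination.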

CN(C)C(=O)C(CCN1CCC(O)(c2ccc(Cl)cc2)CC1)(c1ccccc1)c1ccccc1 [Loperamide (hydrochloride)]
cell viability [%]
Conditions | 0.185185 µM | 0.555556 µM | 1.66667 µM | 5 µM | 15 µM
plate partner (at 0 µM): Daunorubicin | 94.6 | 94.7 | 92.4 | 90.7 | 64.8
plate partner (at 0 µM): Vincristine | 99.8 | 101 | 103 | 100 | 70.9

CCOC(=O)N1CCC(=C2c3ccc(Cl)cc3CCc3cccnc32)CC1 [Loratadine]
plate partner (at 0 µM): Zoledronic
Conditions | cell viability [%]
0.0617284 µM | 107
0.185185 µM | 108
0.555556 µM | 101
1.66667 µM | 94.1
5 µM | 91.5

COc1ccccc1OCC(O)COC(N)=O (stereo not given) [Methocarbamol]
plate partner (at 0 µM): Methotrexate
Conditions | cell viability [%]
0.0679012 µM | 100
0.203704 µM | 100
0.611111 µM | 102
1.83333 µM | 100.1
5.5 µM | 102

COc1ccc2cc([C@H](C)C(=O)O)ccc2c1 [Naproxen]
plate partner (at 0 µM): Tamoxifen
Conditions | cell viability [%]
0.0925926 µM | 97.3
0.277778 µM | 97.3
0.833333 µM | 98.1
2.5 µM | 91.7
7.5 µM | 98

Cc1[nH]c(/C=C2\C(=O)Nc3ccccc32)c(C)c1CCC(=O)O [Orantinib]
plate partner (at 0 µM): Hydroxyurea
Conditions | cell viability [%]
0.320988 µM | 93.3
0.962963 µM | 86.5
2.88889 µM | 87.6
8.66667 µM | 94.8
26 µM | 76.6

C[C@@H](Nc1ncnc2[nH]c(-c3ccc(O)cc3)cc12)c1ccccc1 [PKI-166]
plate partner (at 0 µM): Axitinib
Conditions | cell viability [%]
0.123457 µM | 102
0.37037 µM | 104
1.11111 µM | 108
3.33333 µM | 104
10 µM | 83.6

C=CC(=O)N1CCC(Oc2cc3c(Nc4ccc(Cl)c(Cl)c4F)ncnc3cc2OC)CC1 [Poziotinib]
plate partner (at 0 µM): Mitoxantrone
Conditions | cell viability [%]
0.246914 µM | 91.1
0.740741 µM | 89.8
2.22222 µM | 70.3
6.66667 µM | 71.6
20 µM | 80.5

C[C@]12C=CC(=O)C=C1CC[C@@H]1[C@@H]2[C@@H](O)C[C@@]2(C)[C@H]1CC[C@]2(O)C(=O)CO [Prednisolone]
cell viability [%]
Conditions | 0.0617284 µM | 0.185185 µM | 0.555556 µM | 1.66667 µM | 5 µM
plate partner (at 0 µM): Lapatinib | 83.8 | 90.2 | 87.8 | 87.9 | 88.9
plate partner (at 0 µM): Pazopanib | 80.4 | 81.8 | 86.79 | 94.9 | 102

CC(=O)[C@H]1CC[C@H]2[C@@H]3CCC4=CC(=O)CC[C@]4(C)[C@H]3CC[C@]12C [Progesterone]
cell viability [%]
Conditions | 0.0493827 µM | 0.148148 µM | 0.444444 µM | 1.33333 µM | 4 µM
plate partner (at 0 µM): Axitinib | 91.7 | 80.1 | 83.8 | 71.9 | 69.5
plate partner (at 0 µM): ixabepilone | 99 | 98.2 | 99.5 | 96.3 | 97.2

CCCCC[C@H](O)/C=C/[C@H]1[C@H](O)CC(=O)[C@@H]1CCCCCCC(=O)O [Prostaglandin E1]
plate partner (at 0 µM): Tamoxifen
Conditions | cell viability [%]
0.617284 µM | 118
1.85185 µM | 122
5.55556 µM | 112
16.6667 µM | 103
50 µM | 79.6

CCOC(=O)[C@H](CCc1ccccc1)N[C@@H](C)C(=O)N1[C@H](C(=O)O)C[C@@H]2CCC[C@@H]21 [Ramipril]
plate partner (at 0 µM): Vandetanib
Conditions | cell viability [%]
0.0617284 µM | 110
0.185185 µM | 108
0.555556 µM | 109
1.66667 µM | 113
5 µM | 108

CO[C@H]1C[C@@H]2CC[C@@H](C)[C@@](O)(O2)C(=O)C(=O)N2CCCC[C@H]2C(=O)O[C@H]([C@H](C)C[C@@H]2CC[C@@H](O)[C@H](OC)C2)CC(=O)[C@H](C)/C=C(\C)[C@@H](O)[C@@H](OC)C(=O)[C@H](C)C[C@H](C)/C=C/C=C/C=C/1C [Rapamycin]
plate partner (at 0 µM): Megestrol
Conditions | cell viability [%]
0.0864198 µM | 80
0.259259 µM | 79.4
0.777778 µM | 79
2.33333 µM | 79.8
7 µM | 77.8

CN(C)C(=O)c1cc2cnc(Nc3ccc(N4CCNCC4)cn3)nc2n1C1CCCC1 [Ribociclib]
cell viability [%]
Conditions | 0.123457 µM | 0.37037 µM | 1.11111 µM | 3.33333 µM | 10 µM
plate partner (at 0 µM): Cabazitaxel | 87.8 | 85.5 | 85.6 | 89.6 | 83.8
plate partner (at 0 µM): Vemurafenib | 92.3 | 92.8 | 88.7 | 84.7 | 84
plate partner (at 0 µM): ixabepilone | 100 | 95.3 | 93.1 | 96.6 | 97.6

CN1CCN(c2nc(C3=C(c4c[nH]c5ccccc45)C(=O)NC3=O)c3ccccc3n2)CC1 [Sotrastaurin]
cell viability [%]
Conditions | 0.0123457 µM | 0.037037 µM | 0.111111 µM | 0.333333 µM | 1 µM
plate partner (at 0 µM): Cabazitaxel | 81.8 | 82.7 | 80.2 | 77 | 72.8
plate partner (at 0 µM): Vincristine | 95.3 | 88.7 | 97.1 | 94.5 | 90.4

C=CC(=O)Nc1cccc(Nc2nc(Nc3ccc(OCCOC)cc3)ncc2F)c1 [Spebrutinib]
cell viability [%]
Conditions | 0.37037 µM | 1.11111 µM | 3.33333 µM | 10 µM | 30 µM
plate partner (at 0 µM): Cabazitaxel | 88.4 | 85.5 | 79.4 | 57.9 | 10.2
plate partner (at 0 µM): Vincristine | 100 | 95 | 78.9 | 58.1 | 16.6
plate partner (at 0 µM): ixabepilone | 110 | 104 | 83.2 | 60.5 | 2.09

CNS(=O)(=O)Cc1ccc2[nH]cc(CCN(C)C)c2c1 [Sumatriptan (succinate)]
plate partner (at 0 µM): Sorafenib
Conditions | cell viability [%]
0.0740741 µM | 87.3
0.222222 µM | 97.5
0.666667 µM | 92.2
2 µM | 92.7
6 µM | 94

COc1cc2nc(N3CCN(C(=O)C4CCCO4)CC3)nc(N)c2cc1OC (stereo not given) [Terazosin (hydrochloride dihydrate)]
cell viability [%]
Conditions | 0.0308642 µM | 0.0925926 µM | 0.277778 µM | 0.833333 µM | 2.5 µM
plate partner (at 0 µM): Allopurinol | 88.4 | 93.8 | 86.3 | 91.4 | 82.6
plate partner (at 0 µM): Cabazitaxel | 101 | 107 | 106 | 96.5 | 96.8
plate partner (at 0 µM): Erlotinib | 104 | 106 | 103 | 104 | 98.7
plate partner (at 0 µM): ixabepilone | 121 | 113 | 105 | 104 | 99.4

Cn1c(=O)c2nc[nH]c2n(C)c1=O [Theophylline]
plate partner (at 0 µM): Imiquimod
Conditions | cell viability [%]
0.123457 µM | 107
0.37037 µM | 109
1.11111 µM | 107
3.33333 µM | 100
10 µM | 99

CN(C)CCOc1ccc(/C(=C(/CCCl)c2ccccc2)c2ccccc2)cc1 [Toremifene (citrate)]
cell viability [%]
Conditions | 0.432099 µM | 1.2963 µM | 3.88889 µM | 11.6667 µM | 35 µM
plate partner (at 0 µM): Mitoxantrone | 94.8 | 95 | 85.3 | 33.5 | 2.28
plate partner (at 0 µM): Vinblastine | 95.4 | 89.3 | 77.2 | 20 | 1.28
plate partner (at 0 µM): Vincristine | 93.9 | 87.1 | 80.1 | 43.7 | 2.92

CC(C)C[C@@H](C(=O)N[C@H](C(=O)OC1CCCC1)c1ccccc1)[C@H](O)C(=O)NO [Tosedostat]
cell viability [%]
Conditions | 0.246914 µM | 0.740741 µM | 2.22222 µM | 6.66667 µM | 20 µM
plate partner (at 0 µM): Crizotinib | 90.6 | 94 | 86.1 | 81.4 | 63.6
plate partner (at 0 µM): Pazopanib | 74.3 | 70.3 | 64.9 | 63.1 | 50.8

CN1CCN(CCCN2c3ccccc3Sc3ccc(C(F)(F)F)cc32)CC1 [Trifluoperazine 2HCl]
cell viability [%]
Conditions | plate partner (at 0 µM): Erlotinib | plate partner (at 0 µM): Imatinib | plate partner (at 0 µM): Megestrol | plate partner (at 0 µM): Mitoxantrone | plate partner (at 0 µM): Pazopanib | plate partner (at 0 µM): Vemurafenib | plate partner (at 0 µM): Vincristine
0.185185 µM | 91.2 | 85.2 | 110 | 82.74 | 94.1 | 105 | 110
0.555556 µM | 85.8 | 78.8 | 105 | 86.5 | 89.8 | 110 | 102
1.66667 µM | 86.2 | 79.7 | 104 | 73.8 | 86.7 | 122 | 101
5 µM | 78.5 | 61.4 | 101.1 | 28.3 | 17.1 | 97.5 | 89.9
15 µM | 9.16 | 2.7 | 9.06 | 2.29 | 0.532 | 18.2 | 21.5

Cc1onc(-c2ccccc2)c1-c1ccc(S(N)(=O)=O)cc1 [Valdecoxib]
plate partner (at 0: 5-Fluorouracil µM
Conditions | cell viability [%]
0.17284 µM | 90
0.518519 µM | 99.8
1.55556 µM | 95.2
4.66667 µM | 88.2
14 µM | 78.7

COc1cc2nccc(Oc3ccc(NC(=O)NC4CC4)c(Cl)c3)c2cc1C(N)=O [lenvatinib Mesylate]
plate partner (at 0 µM): Paclitaxel
Conditions | cell viability [%]
0.277778 µM | 106
0.833333 µM | 107
2.5 µM | 105
7.5 µM | 91.7
22.5 µM | 58.7
